# Assay results as given in article PMC9629621.
# Chains of the proteins cited; added tags and fusions are not shown.
# UniProt P10591: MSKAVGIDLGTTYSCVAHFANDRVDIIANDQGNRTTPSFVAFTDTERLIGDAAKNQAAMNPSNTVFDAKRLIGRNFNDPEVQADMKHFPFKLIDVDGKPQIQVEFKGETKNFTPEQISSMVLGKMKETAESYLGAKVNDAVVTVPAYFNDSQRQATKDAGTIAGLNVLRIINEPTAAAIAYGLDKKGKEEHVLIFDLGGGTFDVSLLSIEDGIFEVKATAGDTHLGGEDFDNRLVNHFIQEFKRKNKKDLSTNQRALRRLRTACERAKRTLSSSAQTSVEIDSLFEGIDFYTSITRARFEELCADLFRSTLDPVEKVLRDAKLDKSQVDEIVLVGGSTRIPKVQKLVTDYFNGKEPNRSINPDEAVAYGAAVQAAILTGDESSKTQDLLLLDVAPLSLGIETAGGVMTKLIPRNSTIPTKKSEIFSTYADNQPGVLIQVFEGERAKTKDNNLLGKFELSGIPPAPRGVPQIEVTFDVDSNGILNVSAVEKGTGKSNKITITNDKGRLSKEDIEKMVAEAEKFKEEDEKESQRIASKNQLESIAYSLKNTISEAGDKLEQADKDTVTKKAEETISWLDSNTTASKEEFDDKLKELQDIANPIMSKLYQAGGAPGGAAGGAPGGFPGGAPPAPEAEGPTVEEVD
# UniProt P47079: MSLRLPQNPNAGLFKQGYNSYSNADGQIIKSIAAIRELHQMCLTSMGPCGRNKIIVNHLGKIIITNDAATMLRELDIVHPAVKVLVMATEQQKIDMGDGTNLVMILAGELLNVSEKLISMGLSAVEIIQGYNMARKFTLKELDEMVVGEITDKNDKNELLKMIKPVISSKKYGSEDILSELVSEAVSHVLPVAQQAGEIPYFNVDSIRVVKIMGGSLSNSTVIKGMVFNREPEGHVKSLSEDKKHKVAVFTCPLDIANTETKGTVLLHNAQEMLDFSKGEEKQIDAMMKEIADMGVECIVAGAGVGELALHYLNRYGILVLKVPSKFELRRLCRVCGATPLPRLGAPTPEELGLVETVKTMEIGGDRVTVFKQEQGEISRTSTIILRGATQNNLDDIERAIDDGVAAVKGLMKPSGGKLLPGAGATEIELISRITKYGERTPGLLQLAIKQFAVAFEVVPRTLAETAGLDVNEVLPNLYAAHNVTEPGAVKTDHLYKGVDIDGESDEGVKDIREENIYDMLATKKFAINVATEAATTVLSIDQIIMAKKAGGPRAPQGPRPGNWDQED
# UniProt P25491: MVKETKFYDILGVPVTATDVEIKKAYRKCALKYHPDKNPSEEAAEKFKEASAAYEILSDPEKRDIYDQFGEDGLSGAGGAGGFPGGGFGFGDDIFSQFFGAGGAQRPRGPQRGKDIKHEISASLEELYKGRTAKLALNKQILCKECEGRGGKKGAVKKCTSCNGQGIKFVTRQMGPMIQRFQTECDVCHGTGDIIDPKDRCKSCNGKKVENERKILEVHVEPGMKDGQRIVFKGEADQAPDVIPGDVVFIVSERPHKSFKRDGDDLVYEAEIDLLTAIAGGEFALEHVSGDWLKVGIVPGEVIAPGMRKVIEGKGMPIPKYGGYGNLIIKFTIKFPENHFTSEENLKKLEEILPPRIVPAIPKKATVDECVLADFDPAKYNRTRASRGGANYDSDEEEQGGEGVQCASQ
# These are yes or no findings as the source states them, for the method shown. In cells and extracts the contact can be indirect. Here binding means that the protein was enriched with, or labelled near, the bait; the list need not be complete.
# B1: Sse1 (endogenous) (protein, UniProt P32589 1-693)
# chain: MSTPFGLDLGNNNSVLAVARNRGIDIVVNEVSNRSTPSVVGFGPKNRYLGETGKNKQTSNIKNTVANLKRIIGLDYHHPDFEQESKHFTSKLVELDDKKTGAEVRFAGEKHVFSATQLAAMFIDKVKDTVKQDTKANITDVCIAVPPWYTEEQRYNIADAARIAGLNPVRIVNDVTAAGVSYGIFKTDLPEGEEKPRIVAFVDIGHSSYTCSIMAFKKGQLKVLGTACDKHFGGRDFDLAITEHFADEFKTKYKIDIRENPKAYNRILTAAEKLKKVLSANTNAPFSVESVMNDVDVSSQLSREELEELVKPLLERVTEPVTKALAQAKLSAEEVDFVEIIGGTTRIPTLKQSISEAFGKPLSTTLNQDEAIAKGAAFICAIHSPTLRVRPFKFEDIHPYSVSYSWDKQVEDEDHMEVFPAGSSFPSTKLITLNRTGDFSMAASYTDITQLPPNTPEQIANWEITGVQLPEGQDSVPVKLKLRCDPSGLHTIEEAYTIEDIEVEEPIPLPEDAPEDAEQEFKKVTKTVKKDDLTIVAHTFGLDAKKLNELIEKENEMLAQDKLVAETEDRKNTLEEYIYTLRGKLEEEYAPFASDAEKTKLQGMLNKAEEWLYDEGFDSIKAKYIAKYEELASLGNIIRGRYLAKEEEKKQAIRSKQEASQMAAMAEKLAAQRKAEAEKKEEKKDTEGDVDMD
# Biological target: HIS-tagged Ssa1 (yeast Hsp70) (S. cerevisiae) (UniProt P10591)
# Assay: affinity purification with mass spectrometry; HIS-Ssa1 complexes purified from yeast (His-Trap), with or without DSSO; all proteins identified by HCD shotgun proteomics; ATP not replenished
row,binding,Molecule
1,binds,Cct8 (endogenous) (from UniProt P47079 1-568)
2,binds,Ydj1 co-chaperone (from UniProt P25491 1-409)
3,binds,B1
